These are yes or no findings as the source states them, for the method shown. Some entries that bind do so weakly or less than the wild type.
B1: M79 sdAb (VHH)
VHH: QVKLEESGGGLVQAGGSLKLSCAASGSTFSSSSVGWYRQAPGQQRELVAAITSGGSTNTADSVKGRFTMSRDNAKNTVYLQMRDLKPEDTAVYYCNVAGRNWVPISRYSPGPYWGQGTQVTVSS
notes: also called M79 VHH
B2: R11 sdAb (VHH)
VHH: QVKLEESGGGLVQAGGSLRLSCVGPGFLLRSNTMGWYRQAPGKERELVAFIRPSGLTNYNDAVQGRFTISRDNAKNTVYLQMNALKPEDTAVYYCHTRPPFQRDSWGQGTQVTVSS
notes: also called R11 VHH
B3: R28 sdAb (VHH)
VHH: QVQLVESGGGLVQAGGSLRLSCVASGRTFIAYAMGWFRQAPGKEREFVAAITNFAGGTTYYADSVKGRFTISRDNAKTTVYLQMNSLKPEDTALYYCAADRSAQTMRQVRPVLPYWGQGTQVTVSS
notes: also called R28 VHH

Protein sequences, listed by entry. Tags and fused reporters are not part of them. Residues count along the entry.
UniProt P02768, residues 213-409: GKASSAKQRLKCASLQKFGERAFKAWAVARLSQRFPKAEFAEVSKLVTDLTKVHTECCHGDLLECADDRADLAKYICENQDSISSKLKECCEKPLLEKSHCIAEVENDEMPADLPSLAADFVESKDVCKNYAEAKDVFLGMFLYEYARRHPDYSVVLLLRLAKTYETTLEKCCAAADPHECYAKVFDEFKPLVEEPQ

Target: T1, HSA domain 2 (DII) (human, UniProt P02768 213-409)
T1 construct: domain: DII
Assay: SPR over HSA domain surfaces

Binder | binding
B1 | binds
B2 | binds
B3 | binds

Target: T1, HSA domain 2 (DII)
Assay: SPR, 100 nM VHH over HSA domain surfaces

Binder | binding
B1 | binds
B2 | binds
B3 | binds

Target: T1, HSA domain 2 (DII)
Assay: SPR, 100 nM VHH over an amine-coupled DII surface

Binder | binding
B1 | binds
B2 | binds
B3 | binds

— US20210253679A1 (NATIONAL RESEARCH COUNCIL OF CANADA, published 2021)
